Source: PMC9045647
These are yes or no findings as the source states them, for the method shown. In cells and extracts the contact can be indirect. For some of these results: Sequences can lack the tags named with a protein.

Columns and labels:
Assay in all cases: split reporter
[1] = molecular target: T1, Mtb SufR (Rv1460) fused to mDHFR fragment F[1,2] (Mycobacterium tuberculosis) (UniProt O53151)
T1 sequence: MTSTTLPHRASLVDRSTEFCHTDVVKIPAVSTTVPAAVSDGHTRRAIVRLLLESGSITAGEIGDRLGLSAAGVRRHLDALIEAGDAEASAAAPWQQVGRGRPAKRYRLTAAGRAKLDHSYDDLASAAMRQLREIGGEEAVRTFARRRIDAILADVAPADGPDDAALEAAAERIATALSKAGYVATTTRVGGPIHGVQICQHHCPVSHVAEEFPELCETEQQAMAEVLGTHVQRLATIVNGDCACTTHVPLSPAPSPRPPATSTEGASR

[2] = molecular target: Mtb aconitase (Acn) fused to mDHFR fragment F[1,2] (Mycobacterium tuberculosis) (UniProt O53166)
[3] = molecular target: T2, Mtb SufT (Rv1466), wild type, fused to an mDHFR fragment for M-PFC (Mycobacterium tuberculosis) (UniProt O53157)
T2 sequence: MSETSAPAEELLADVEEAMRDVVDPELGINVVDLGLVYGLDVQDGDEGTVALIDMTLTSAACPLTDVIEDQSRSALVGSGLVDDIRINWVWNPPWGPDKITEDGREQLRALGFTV

[4] = molecular target: Mtb SufS (Rv1464) fused to mDHFR fragment F[1,2] (Mycobacterium tuberculosis) (UniProt P9WQ69)

Measured: binding

Mtb SufT C62A fused to mDHFR fragment F[3] (from UniProt O53157 1-115)
no binding: [1] | [2] | [3] | [4]
